Measured values reported in doi:10.1101/247882 (bioRxiv, 2018).

Target: T1, Synechocystis OCP with amino acid substitutions Y201A and W288A, holoprotein (Synechocystis sp. PCC 6803) (UniProt P74102)
T1 sequence: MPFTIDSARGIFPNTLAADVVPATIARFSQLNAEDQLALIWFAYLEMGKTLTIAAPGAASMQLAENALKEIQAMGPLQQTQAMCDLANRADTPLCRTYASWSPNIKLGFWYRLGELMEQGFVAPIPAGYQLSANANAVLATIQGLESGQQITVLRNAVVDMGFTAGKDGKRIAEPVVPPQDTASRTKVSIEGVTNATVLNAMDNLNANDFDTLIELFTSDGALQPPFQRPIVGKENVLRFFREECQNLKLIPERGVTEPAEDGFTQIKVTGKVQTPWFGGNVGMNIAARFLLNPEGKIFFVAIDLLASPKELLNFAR
Test: SEC

Substance	binding
Arthrospira maxima FRP (from UniProt B5W3T4)	binds
Anabaena variabilis FRP (from UniProt Q3M6D9)	binds

These are yes or no findings as the source states them, for the method shown. A result given as binding can be weak or reduced; the word gives no strength.
